Assay results from PubChem BioAssay AID1781 (National Center for Advancing Translational Sciences (NCATS), 2009).
Values joined by “and” are separate entries in the source; they are usually repeats but may differ in a detail not shown here. Identical values can stand only once. This list was built around the results that the source calls inconclusive (neither active nor inactive); the mix of calls is not that of the screen. Where the call is inconclusive, the potency comes from a doubtful curve fit. Active and inactive are the calls of the source. The call rests on the fitted dose curve; in most records, active means well fitted curve in the direction sought with a large enough effect; inconclusive means small, poorly fitted or top-dose-only effect, or effect the other way, or another doubt; inactive means no such curve, though single readings can be large or run the other way.

Protein sequences, listed by entry. Tags and fused reporters are not part of them. Lines headed by an entry give the natural chain unless they say otherwise; changes in a name come on top.
UniProt P30613: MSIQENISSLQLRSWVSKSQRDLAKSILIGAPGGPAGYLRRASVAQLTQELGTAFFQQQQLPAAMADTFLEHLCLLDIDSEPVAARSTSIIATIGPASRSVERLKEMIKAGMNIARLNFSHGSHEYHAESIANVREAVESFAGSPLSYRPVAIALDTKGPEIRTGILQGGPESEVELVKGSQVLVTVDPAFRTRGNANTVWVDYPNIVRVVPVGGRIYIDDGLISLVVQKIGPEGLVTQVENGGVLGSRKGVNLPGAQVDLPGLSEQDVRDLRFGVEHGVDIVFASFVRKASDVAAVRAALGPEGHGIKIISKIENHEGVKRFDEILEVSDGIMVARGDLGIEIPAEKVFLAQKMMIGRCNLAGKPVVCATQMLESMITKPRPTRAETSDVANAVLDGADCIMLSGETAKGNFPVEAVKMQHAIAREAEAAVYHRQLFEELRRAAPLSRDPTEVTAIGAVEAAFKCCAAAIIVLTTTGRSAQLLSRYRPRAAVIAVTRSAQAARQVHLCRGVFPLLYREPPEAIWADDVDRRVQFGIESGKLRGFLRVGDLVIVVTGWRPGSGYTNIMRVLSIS

Target: Pyruvate kinase PKLR (Homo sapiens) (UniProt P30613)
Assay: Confirmation Concentration-Response Assay for Activators of Human Liver Pyruvate Kinase
Conditions: purified hPK-L, Kinase-Glo ATP luminescence, 1 h; series mostly up to 57.5 µM; activity change, positive = activation: at the top concentration
Excerpt: Confirmatory assay NIH Chemical Genomics Center [NCGC] Matthew G. Vander Heiden, M.D., Ph.D. [Harvard Medical School, 77 Avenue Louis Pasteur, Boston, MA 02115] NCGC Assay Overview: Human pyruvate kinase liver (hPK-L) enzyme was supplied as a highly purified (>95% pure) preparation from Harvard Medical School and assayed for its ability to generate ATP from ADP using phosphoenolpyruvate (PEP) as a substrate. ATP generation was detected in a coupled reaction by luciferase-mediated luminescence, an ATP-dependent process. Pyruvate kinase substrates, PEP and ADP, were present in the assay at Km and approximately 10-fold below Km respectively. The enzyme was assayed at an intermediate level of activity to screen for both inhibitors and activators.
NCGC Assay Protocol Summary for L-isoform: Three uL of substrate mix (at r.t.) in assay buffer (50 mM Imidazole pH7.2, 50 mM KCl, 7 mM MgCl2, 0.01% Tween 20, 0.05% BSA) was dispensed into white solid bottom 1,536 well microtiter plates so that the final concentrations of substrates in the assay were 0.1 mM ADP and 0.5 mM PEP. 23 nL of compound were delivered by a pin tool and 1 uL of enzyme mix (final concentration of 0.1 nM) in assay buffer (4 degree Celsius) was added. Plates were incubated at room temperature for 1 hour. Two uL of detection mix (Kinase-Glo, Promega; at 4 degree Celsius protected from light) was added and luminescence read by a ViewLux (Perkin Elmer) at 1 second exposure/plate. Data were normalized to the uninhibited (row 31). Additionally, a no enzyme and 5-fold enzyme control was dispensed in row 32, split equally between the two conditions.

Compound | activity change, positive = activation | Potency
Cc1cc2c(s1)c1cnn(Cc3c(F)c(F)cc(F)c3F)c(=O)c1n2C | inactive: 1.25% | 
COc1cc(F)c(S(=O)(=O)N2CCN(S(=O)(=O)c3ccc4c(c3)OCCO4)CC2)c(F)c1 | inactive: 9.44% | 
O=C(CN1C(=O)N/C(=C\c2cccn2-c2cccc(C(=O)O)c2)C1=O)Nc1ccccc1F | inactive: -8.34% | 
O=C1CN(S(=O)(=O)c2c(F)cccc2F)CCN1S(=O)(=O)c1ccc2c(c1)OCCO2 |  | inconclusive: 0.708 µM [rising, partial curve, poor fit]
O=S(=O)(NC1CCN(S(=O)(=O)c2c(F)cccc2F)CC1)c1ccc2c(c1)OCCO2 |  | inconclusive: 39.8 µM [rising, partial curve, poor fit]
O=S(=O)(c1cccc(F)c1)N1CCN(S(=O)(=O)c2ccc3c(c2)OCCO3)CC1 |  | inconclusive: 1.26 µM [rising, full curve, poor fit]
O=S(=O)(c1c(F)cccc1F)N1CCN(S(=O)(=O)c2c(F)cccc2F)CC1 |  | inconclusive: 0.0004 µM [rising, full curve, poor fit]
O=S(=O)(c1ccc(F)cc1)N1CCN(S(=O)(=O)c2ccc3c(c2)OCCO3)CC1 |  | inconclusive: 17.8 µM [rising, partial curve]
Cc1cc2c(s1)c1cnn(Cc3c(F)cccc3Cl)c(=O)c1n2C | inactive: 1.54% | 
O=S(=O)(c1ccc2c(c1)OCCO2)N1CCN(S(=O)(=O)c2ccc(F)cc2F)CC1 |  | inconclusive: 1.12 µM [rising, full curve, poor fit]
CN1CCOc2ccc(S(=O)(=O)N3CCN(S(=O)(=O)c4c(F)cccc4F)CC3)cc21 |  | inconclusive: 0.0032 µM [rising, full curve]
Cc1cc2c(s1)c1cnn(Cc3c(F)cccc3F)c(=O)c1n2C | inactive: 2.36% | 
O=S(=O)(c1ccc2c(c1)OCCO2)N1CCN(S(=O)(=O)c2ccc3c(c2)OCCO3)CC1 |  | inconclusive: 3.55 µM [rising, full curve, poor fit]
O=S(=O)(c1ccc2c(c1)OCCO2)N1CCN(S(=O)(=O)c2ccccn2)CC1 |  | inconclusive: 6.31 µM [rising, partial curve, poor fit]
Cc1cc2c(s1)c1cnn(Cc3ccccc3F)c(=O)c1n2C |  | inactive
O=S(=O)(NC1CCN(S(=O)(=O)c2ccc3c(c2)OCCO3)CC1)c1c(F)cccc1F | inactive: 9.28% | 
O=S(=O)(NC1CCC(NS(=O)(=O)c2c(F)cccc2F)CC1)c1ccc2c(c1)OCCO2 (stereo not given) |  | inconclusive: 17.8 µM [rising, full curve, poor fit]
O=S(=O)(c1ccc2c(c1)OCCO2)N1CCN(S(=O)(=O)c2c(F)ccc(O)c2F)CC1 |  | inconclusive: 25.1 µM [rising, partial curve, poor fit]
CC(=O)Nc1cc2c(s1)c1cnn(Cc3ccccc3F)c(=O)c1n2C | inactive: 0.724% | 
COc1cccc(S(=O)(=O)N2CCN(S(=O)(=O)c3ccc4c(c3)OCCO4)CC2)c1 |  | inconclusive: 0.199 µM [rising, partial curve, poor fit]

Compound | activity change, positive = activation | Potency
O=S(=O)(NCC1CN(S(=O)(=O)c2c(F)cccc2F)C1)c1ccc2c(c1)OCCO2 |  | inconclusive: 11.2 µM [rising, full curve]
O=S(=O)(NCCCNS(=O)(=O)c1c(F)cccc1F)c1ccc2c(c1)OCCO2 |  | inconclusive: 22.4 µM [rising, partial curve, poor fit]
O=S(=O)(c1c(F)cccc1F)C1CCN(S(=O)(=O)c2ccc3c(c2)OCCO3)CC1 |  | inconclusive: 6.31 µM [rising, full curve, poor fit]
Cc1cc2c(s1)c1cnn(Cc3ccc(Cl)cc3)c(=O)c1n2C | inactive: -5.43% | 
O=S(=O)(c1ccc2c(c1)OCCO2)N1CCN(S(=O)(=O)c2cc(F)c(F)cc2F)CC1 |  | inconclusive: 0.0355 µM [rising, partial curve]
O=C1CN(S(=O)(=O)c2ccc3c(c2)OCCO3)CCN1S(=O)(=O)c1c(F)cccc1F |  | inconclusive: 4.47 µM [rising, partial curve, poor fit]
Cc1cc2c(s1)c1cnn(Cc3ccc(C(F)(F)F)cc3F)c(=O)c1n2C | inactive: 3.86% | 
O=S(=O)(c1ccc2c(c1)OCCO2)N1CCN(S(=O)(=O)c2ccccc2F)CC1 |  | inconclusive: 1.58 µM [rising, full curve]
COc1ccc(Cn2ncc3c4sc(C)cc4n(C)c3c2=O)cc1 | inactive: 3.19% | 
O=S(=O)(c1ccc(Cl)cc1)N1CCN(S(=O)(=O)c2ccc3c(c2)OCCO3)CC1 |  | inconclusive: 56.2 µM [rising, partial curve, poor fit]
C[C@@H]1CN(S(=O)(=O)c2c(F)cccc2F)CCN1S(=O)(=O)c1ccc2c(c1)OCCO2 |  | inconclusive: 31.6 µM [rising, partial curve]
COc1cc2c(s1)c1cnn(Cc3ccccc3F)c(=O)c1n2C | inactive: 12.5% | 
O=S(=O)(c1ccc2c(c1)OCCO2)N1CCCN(S(=O)(=O)c2c(F)cccc2F)CC1 |  | inconclusive: 7.94 µM [rising, full curve, poor fit]
COc1ccc(S(=O)(=O)N2CCN(S(=O)(=O)c3c(F)cccc3F)CC2)cc1 |  | inactive and inconclusive: 0.4 nM
O=S(=O)(NCC1CN(S(=O)(=O)c2ccc3c(c2)OCCO3)C1)c1c(F)cccc1F |  | inconclusive: 20 µM [rising, partial curve]
Cn1c2cc(C=O)sc2c2cnn(Cc3ccccc3F)c(=O)c21 | inactive: -3.97% | 
C[C@H]1CN(S(=O)(=O)c2c(F)cccc2F)CCN1S(=O)(=O)c1ccc2c(c1)OCCO2 |  | inconclusive: 56.2 µM [rising, partial curve, poor fit]
O=S(=O)(NCCNS(=O)(=O)c1c(F)cccc1F)c1ccc2c(c1)OCCO2 | inactive: 13.3% | 
O=S(=O)(c1ccc2c(c1)OCCO2)C1CCN(S(=O)(=O)c2c(F)cccc2F)CC1 |  | inconclusive: 6.31 µM [rising, full curve, poor fit]
C[C@H]1CN(S(=O)(=O)c2ccc3c(c2)OCCO3)CCN1S(=O)(=O)c1c(F)cccc1F |  | inconclusive: 0.01 µM [rising, full curve, poor fit]
